Measured values from patent US10179115B2, “Methods for treating malaria using potassium channel inhibitors” (THE CHILDREN'S MEDICAL CENTER CORPORATION, priority 2015, dated 2019).

Tests used:
Assay type in all cases: cell-based
P. falciparum 3D7 = assay: in vitro growth inhibition of P. falciparum 3D7 over one asexual cycle; conditions: Plasmodium falciparum, read-out: IC50 (mean ± 95% confidence interval)
P. falciparum 7G8 = assay: in vitro growth inhibition of P. falciparum 7G8; conditions: Plasmodium falciparum; P. falciparum 7G8, Res CQ; read-out: IC50 (mean ± 95% confidence interval)
P. falciparum W2mef = assay: microbe, parasite or virus in culture; conditions: Plasmodium falciparum, read-out: IC50 (mean ± 95% confidence interval)

Clc1ccccc1C(c1ccccc1)(c1ccccc1)n1ccnc1 [CLT, clotrimazole]
IC50 (P. falciparum 3D7): 5.67 ± 1.11 µM | IC50 (P. falciparum 7G8): 2.46 ± 0.12 µM | IC50 (P. falciparum W2mef): 8.92 ± 0.02 µM
